Experimental data from patent US20080219974A1.
These are yes or no findings as the source states them, for the method shown. Some entries that bind do so weakly or less than the wild type.

Chains of the proteins cited; added tags and fusions are not shown. Lines headed by an entry give the natural chain unless they say otherwise; changes in a name come on top.
UniProt Q10589: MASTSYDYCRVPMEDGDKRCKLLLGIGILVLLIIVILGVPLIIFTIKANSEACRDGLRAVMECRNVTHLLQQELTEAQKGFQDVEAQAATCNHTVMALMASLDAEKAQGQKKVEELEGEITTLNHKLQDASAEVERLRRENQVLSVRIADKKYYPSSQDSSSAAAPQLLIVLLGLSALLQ

Legend:
[1] = target: Human HM1.24 on RPMI 8226 multiple myeloma cells (human) (UniProt Q10589); assay: flow cytometry on HM1.24+ RPMI 8226 cells
[2] = target: His-tagged HM1.24 antigen, residues N49-A163 of the extracellular domain (human) (UniProt Q10589)

Row | Binder | binding [1] | binding [2]
1 | HM1.24_H1L4 (antibody, human IgG1, kappa, V domains shown) VH: QVQLVQSGAEVKKPGASVKVSCKASGYTFTPYWMQWVRQAPGQGLEWMGSIFPGDGDTRYSQSFQGQVTISADKSISTAYMELSRLRSDDTAVYYCARGLRRGGYYFDYWGQGTLVTVSS VL: DIVMTQSPLSLPVTLGQPASISCKASQDVNTAVAWYLQKPGKSPKLLIYSASNRYTGVPDRITGSGSGTDFTLKISRVEAEDVGVYYCQQHYSTPFTFGSGTKLEIKR | binds | binds
2 | HM1.24_H2L4 (antibody, human IgG1, kappa, V domains shown) VH: EVQLVESGGGLVKPGGSLRLSCAASGYTFTPYWMQWVRQAPGKGLEWMGSIFPGDGDTRYSQSFQGQVTISADKSISTAYMELSSLRSEDTAVYYCARGLRRGGYYFDYWGQGTLVTVSS VL: DIVMTQSPLSLPVTLGQPASISCKASQDVNTAVAWYLQKPGKSPKLLIYSASNRYTGVPDRITGSGSGTDFTLKISRVEAEDVGVYYCQQHYSTPFTFGSGTKLEIKR | binds | binds
